Data published in patent publication US20030105000A1.
These are yes or no findings as the source states them, for the method shown. In cells and extracts the contact can be indirect. Some results given as binding are weak or reduced against the parent protein; the word gives no strength.

Biological target: Grb7 (in lysate of heregulin-stimulated SKBR3 cells) (UniProt Q14451)
Test: co-immunoprecipitation competition in SKBR3 lysate, peptide at 100 uM; blocked partner ErbB family

binding: binds
Binder: RSTLCWFEGYDNTFPCKYFR (non-phosphorylated; disulfide bond between the two fixed cysteines) [G7-18 free synthetic peptide]
